Laboratory results from publication PMC8440562, “MAD2L2 dimerization and TRIP13 control shieldin activity in DNA repair” (Nature Communications, 2021).

Protein sequences, listed by entry. Tags and fused reporters are not part of them.
UniProt Q9UI95: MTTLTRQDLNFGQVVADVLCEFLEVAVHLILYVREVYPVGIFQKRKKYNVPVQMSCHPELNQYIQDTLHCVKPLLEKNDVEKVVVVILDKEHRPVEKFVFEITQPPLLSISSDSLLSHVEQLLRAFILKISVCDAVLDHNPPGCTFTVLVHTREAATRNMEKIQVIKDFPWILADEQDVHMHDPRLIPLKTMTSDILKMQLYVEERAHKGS

Assays:
[1] = target: GFP-MAD2L2^RR (UniProt Q9UI95); assay: affinity purification with mass spectrometry; GFP-Trap IP of GFP-MAD2L2^RR from MAD2L2-depleted HeLa against a GFP control; untreated or 3 h after 25 Gy
[2] = target: 3xflag-tagged MAD2L2 (UniProt Q9UI95); assay: affinity purification with mass spectrometry; pulldown of 3xflag-tagged MAD2L2 from 293T transduced with sgNT or sgTRIP13; n = 3

Binder | binding [1] | binding [2]
SHLD2 (endogenous, HeLa) (protein, UniProt Q86V20 1-835) MSGGSQVHIFWGAPIAPLKITVSEDTASLMSVADPWKKIQLLYSQHSLYLKDEKQHKNLENYKVPESIGSPDLSGHFLANCMNRHVHVKDDFVRSVSETQNIESQKIHSSRLSDITSSNMQICGFKSTVPHFTEEEKYQKLLSENKIRDEQPKHQPDICGKNFNTNLFQLGHKCAAVLDLVCSTEKINIGPEVVQRECVPTEYHEIQNQCLGLFSSNAVDKSRSEAAVRKVSDLKISTDTEFLSIITSSQVAFLAQKKDKRRSPVNKGNVNMETEPKASYGEIRIPEENSIQLDGFTEAYESGQNQAYSLELFSPVCPKTENSRIHINSDKGLEEHTGSQELFSSEDELPPNEIRIELCSSGILCSQLNTFHKSAIKRSCTSEDKVGQSEALSRVLQVAKKMKLISNGGDSAVEMDRRNVSEFKSIKKTSLIKNCDSKSQKYNCLVMVLSPCHVKEINIKFGPNSGSKVPLATVTVIDQSETKKKVFLWRTAAFWAFTVFLGDIILLTDVVIHEDQWIGETVLQSTFSSQLLNLGSYSSIQPEEYSSVVSEVVLQDLLAYVSSKHSYLRDLPPRQPQRVNSIDFVELEHLQPDVLVHAVLRVVDFTILTEAVYSYRGQKQKKVMLTVEQAQDQHYALVLWGPGAAWYPQLQRKKGVVLIKAQISELAFPITASQKIALNAHSSLKSIFSSLPNIVYTGCAKCGLELETDENRIYKQCFSCLPFTMKKIYYRPALMTAIDGRHDVCIRVESKLIEKILLNISADCLNRVIVPSSEITYGMVVADLFHSLLAVSAEPCVLKIQSLFVLDENSYPLQQDFSLLDFYPDIVKHGANARL | binds | 
SHLD3 (endogenous, HeLa) (protein, UniProt Q6ZNX1 1-250) MTTEVILHYRPCESDPTQLPKIAEKAIQDFPTRPLSRFIPWFPYDGSKLPLRPKRSPPVISEEAAEDVKQYLTISEHDAKSHSYDCTVDLLEFQPSLKKQHLTWSHTLKEQTNSGNLGKQSEKGKQHKRRSWSISLPSNNCTKNVSPLSKKLQDSLKALNLHSLYRARWTIEHTICNSQTLEDIWTKLNQIIRHNELPSCNATIQRHLGQIWVFCDIMYCEYVGSLLKGRLALTGKINLFVHKYGVIFSM | binds | 
SHLD1 (endogenous, 293T) (protein, UniProt Q8IYI0 1-205) MAARDATSGSLSEESSALDLPSACDIRDYVLQGPSQEANSEAFSSLEFHSFPYSSDVDPDTSNLNIEQNNSWTAENFWLDPAVKGQSEKEEDDGLRKSLDRFYEMFGHPQPGSANSLSASVCKCLSQKITQLRGQESQKYALRSFQMARVIFNRDGCSVLQRHSRDTHFYPLEEGSTSLDDEKPNPGLSKDITHFLLQQNVMKDL |  | binds
SHLD2 (endogenous, 293T) (protein, UniProt Q86V20 1-835) MSGGSQVHIFWGAPIAPLKITVSEDTASLMSVADPWKKIQLLYSQHSLYLKDEKQHKNLENYKVPESIGSPDLSGHFLANCMNRHVHVKDDFVRSVSETQNIESQKIHSSRLSDITSSNMQICGFKSTVPHFTEEEKYQKLLSENKIRDEQPKHQPDICGKNFNTNLFQLGHKCAAVLDLVCSTEKINIGPEVVQRECVPTEYHEIQNQCLGLFSSNAVDKSRSEAAVRKVSDLKISTDTEFLSIITSSQVAFLAQKKDKRRSPVNKGNVNMETEPKASYGEIRIPEENSIQLDGFTEAYESGQNQAYSLELFSPVCPKTENSRIHINSDKGLEEHTGSQELFSSEDELPPNEIRIELCSSGILCSQLNTFHKSAIKRSCTSEDKVGQSEALSRVLQVAKKMKLISNGGDSAVEMDRRNVSEFKSIKKTSLIKNCDSKSQKYNCLVMVLSPCHVKEINIKFGPNSGSKVPLATVTVIDQSETKKKVFLWRTAAFWAFTVFLGDIILLTDVVIHEDQWIGETVLQSTFSSQLLNLGSYSSIQPEEYSSVVSEVVLQDLLAYVSSKHSYLRDLPPRQPQRVNSIDFVELEHLQPDVLVHAVLRVVDFTILTEAVYSYRGQKQKKVMLTVEQAQDQHYALVLWGPGAAWYPQLQRKKGVVLIKAQISELAFPITASQKIALNAHSSLKSIFSSLPNIVYTGCAKCGLELETDENRIYKQCFSCLPFTMKKIYYRPALMTAIDGRHDVCIRVESKLIEKILLNISADCLNRVIVPSSEITYGMVVADLFHSLLAVSAEPCVLKIQSLFVLDENSYPLQQDFSLLDFYPDIVKHGANARL |  | binds
SHLD3 (endogenous, 293T) (protein, UniProt Q6ZNX1 1-250) MTTEVILHYRPCESDPTQLPKIAEKAIQDFPTRPLSRFIPWFPYDGSKLPLRPKRSPPVISEEAAEDVKQYLTISEHDAKSHSYDCTVDLLEFQPSLKKQHLTWSHTLKEQTNSGNLGKQSEKGKQHKRRSWSISLPSNNCTKNVSPLSKKLQDSLKALNLHSLYRARWTIEHTICNSQTLEDIWTKLNQIIRHNELPSCNATIQRHLGQIWVFCDIMYCEYVGSLLKGRLALTGKINLFVHKYGVIFSM |  | binds

Results are given in words; binding and its absence hold for the method and conditions named. In cells and extracts the contact can be indirect. Here binding means that the protein was enriched with, or labelled near, the bait; the list need not be complete.
